Measurements: article PMC8428793
Results are given in words; binding and its absence hold for the method and conditions named. In cells and extracts the contact can be indirect. Sequences can lack the tags named with a protein.

Key:
[1] = molecular target: GFP-tagged SEPT9 isoform E (human); assay: pull-down; GFP-TRAP: 293T transfected with GFP-tagged ESCRT subunits or SEPT9 isoforms and AKTIP-Myc-Flag; lysis buffer 150mM NaCl, 50 mM Tris pH7.5, 1 mM EDTA, 1% glycerol, 1% NP40; magnetic agarose GFP-trap beads 10 minutes; Western blot with MYC antisera
[2] = molecular target: GFP-tagged SEPT9 isoform B (human); assay: as above

binding [1]: no binding | binding [2]: no binding
B1: MYC-AKTIP (pCMV6-Entry-AKTIP-Myc-Flag) (protein, UniProt Q9H8T0 1-292)
chain: MNPFWSMSTSSVRKRSEGEEKTLTGDVKTSPPRTAPKKQLPSIPKNALPITKPTSPAPAAQSTNGTHASYGPFYLEYSLLAEFTLVVKQKLPGVYVQPSYRSALMWFGVIFIRHGLYQDGVFKFTVYIPDNYPDGDCPRLVFDIPVFHPLVDPTSGELDVKRAFAKWRRNHNHIWQVLMYARRVFYKIDTASPLNPEAAVLYEKDIQLFKSKVVDSVKVCTARLFDQPKIEDPYAISFSPWNPSVHDEAREKMLTQKKPEEQHNKSVHVAGLSWVKPGSVQPFSKEEKTVAT
